Changes are numbered by the printed parent chain. These are yes or no findings as the source states them, for the method shown. Some binding calls cover weakened binding; strength is not graded here.
T1: Recombinant purified CD79b (R&D systems) (human, UniProt P40259 29-159)
T1 construct: Bought protein
T1 sequence: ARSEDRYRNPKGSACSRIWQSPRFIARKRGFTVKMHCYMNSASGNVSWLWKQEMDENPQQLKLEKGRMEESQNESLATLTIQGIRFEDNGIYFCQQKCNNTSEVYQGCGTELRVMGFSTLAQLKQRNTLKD

B1: Polatuzumab (antibody, V domains shown)
VH: EVQLVESGGGLVQPGGSLRLSCAASGYTFSSYWIEWVRQAPGKGLEWIGEILPGGGDTNYNEIFKGRATFSADTSKNTAYLQMNSLRAEDTAVYYCTRRVPIRLDYWGQGTLVTVSS
VL: DIQLTQSPSSLSASVGDRVTITCKASQSVDYEGDSFLNWYQQKPGKAPKLLIYAASNLESGVPSRFSGSGSGTDFTLTISSLQPEDFATYYCQQSNEDPLTFGQGTKVEIKR
notes: polatuzumab'; also called humanised anti-CD79b 2F2; anti-CD79b antibody polatuzumab
B2: 2E8 (antibody, mouse IgG2a, V domains shown)
VH: AVQLVESGGGLVQPKESLKISCAASGFTFSNAAMYWVRQAPGKGLEWVARIRTKPNNYATNYADSVKGRFTISRDDSKSMVYLQMDNLKTEDTAMYYCTYYDGSSYAMDAWGQGTSVTVSS
VL: DVVLTQTPVSLSVTLGDQASISCRSSQSLEYSDGYTYLDWYLQKPGQSPQLLIYEVSNRFSGVPDRFIGSGSGTDFTLKISRVEPEDLGVYYCFQATHDPYTFGAGTKLEIK
notes: also called 2E8 antibody; clone 2E8
B3: 7G4 (antibody, mouse IgG2a, V domains shown)
VH: B2 VH
VL: B2 VL with V56I
notes: also called 7G4 antibody; clone 7G4
B4: 3H2 (antibody, mouse IgG2a, V domains shown)
VH: AVQLVESGGGLVQPKESLKLSCAASGFTFSHTAMYWVRQAPGKGLECVARIRIQPKNYATYYADSVKGRFTISRDDSKSMVYLQMDNLKTEDTAMYYCTAAGFGFDYWGQGVMVTVSS
VL: B2 VL with Y35N, D39E, N58K, V90I, F94L, Y101F, A105S
notes: also called 3H2 antibody; clone 3H2

Assays:
[1] = target: CD79b on Raji, Daudi and MM1.s cell lines (human) (UniProt P40259); experiment: flow cytometry on Raji, Daudi and MM1.s cells, 5 µg/ml polatuzumab detected with anti-murine Fc secondary antibody-APC
[2] = target: CD79b on Raji, Daudi and MM1.s cell lines (human) (UniProt P40259); experiment: flow cytometry, cells stained with 5 µg/ml polatuzumab, anti-murine Fc secondary antibody conjugated to APC
[3] = target: T1, Recombinant purified CD79b (R&D systems); experiment: SPR, Biacore 8K
[4] = target: T1, Recombinant purified CD79b (R&D systems); experiment: SPR, Biacore 8K, antibody immobilised on CM5 chip, CD79b as analyte

Binder	binding [1]	binding [2]	binding [3]	binding [4]
B1	binds	binds	–	–
B2	–	–	binds	binds
B3	–	–	binds	binds
B4	–	–	binds	binds
